# PubChem BioAssay AID1259254 | NCATS | 2017
# Test: 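Genome-wide screen for genes that prevent DNA re-replication in cancer cells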 (primary screen)
# System: human HCT116 colorectal cancer cells
# Reagent: single siRNA against human genes
# Time to read-out: 3 days
# Measurement: 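Imaged Hoechst DNA stain sorts each cell into a cycle phase by DNA amount; per plate, G2 fraction set to 0% for non-targeting and 100% for GMNN siRNA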
# Scale: G2 robust z-score and G2 cells, % of GMNN control: higher = more G2 cells, more excess DNA replication; raw share of cells in G2: higher = larger share of cells with G2 DNA content
# Hit rule: 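Active siRNAs have a G2 robust z of 5 or more median absolute deviations over the median, which in these data means about 38% or higher of GMNN control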
# Here is a random part of about 59,000 reagents. Over the whole deposit, about 1,550 (2.6%) were called active. 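G2 share is only a proxy for re-replication; each gene was hit by three separate siRNAs, and active genes were retested.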 Raw values are not corrected between plates. Unmarked entries are inactive. The numbers tell different reagents against one gene apart. No sequences are given here. Not given: the amount of reagent.
Target gene,reagent no.,G2 robust z-score,"G2 cells, % of GMNN control",raw share of cells in G2 (%)
SLC15A4,1,0.609,7.25,7.22
SLC15A4,2,-0.656,-1.65,4.91
SLC15A4,3,-1.07,-4.53,3.02
SLC9A5,1,0.499,6.48,6.77
SLC9A5,2,-1.25,-5.83,3.72
SLC9A5,3,1.4,12.8,8.2
TMEM181,1,2.52,20.7,12.5
TMEM181,2,-0.498,-0.537,4.2
TMEM181,3,-0.366,0.393,3.15
BIN3,1,-0.423,-0.00679,2.79
BIN3,2,1.44,13.1,11.8
BIN3,3,-1.36,-6.58,1.57
PSMD8,1,-0.169,1.78,4.17
PSMD8,2,3.52,27.7,17.8
PSMD8,3,4.48,34.5,15.6
BCAR3,1,0.57,6.98,8.23
BCAR3,2,0.44,6.07,6.3
BCAR3,3,2.41,20,10.4
XTBD1P1,1,-0.554,-0.929,3.47
XTBD1P1,2,-0.808,-2.72,2.44
XTBD1P1,3,-0.164,1.81,5.54
ZNHIT6,1,0.0939,3.63,4.9
ZNHIT6,2,-0.592,-1.2,3.77
ZNHIT6,3,0.465,6.24,5.25
TRMT10C,1,-0.561,-0.982,4.09
TRMT10C,2,-0.0295,2.76,5.48
TRMT10C,3,-0.508,-0.607,6.16
ADGRL1,1,-0.637,-1.51,5.3
ADGRL1,2,0.343,5.38,6.4
ADGRL1,3,2.11,17.8,8.73
IL7R,1,-0.776,-2.49,4.14
IL7R,2,0.00857,3.03,6.84
IL7R,3,-0.149,1.92,4.91
VRTN,1,-0.847,-2.99,2.18
VRTN,2,-0.497,-0.528,4.32
VRTN,3,0.183,4.25,5.9
PCSK9,1,-0.446,-0.169,5.53
PCSK9,2,-0.626,-1.43,4
PCSK9,3,0.462,6.22,6.58
HOXD11,1,-0.687,-1.86,3.52
HOXD11,2,-1.37,-6.68,3.14
HOXD11,3,-0.863,-3.1,3.92
ALG3,1,0.514,6.58,8.56
ALG3,2,-0.101,2.26,4.57
ALG3,3,0.571,6.98,9.23
DNAJB12,1,-0.118,2.14,3.55
DNAJB12,2,1.64,14.5,12.5
DNAJB12,3,-0.413,0.0639,3.65
GNL3,1,1.08,10.6,7.45
GNL3,2,0.42,5.92,8.85
GNL3,3,0.565,6.94,6.49
RAMAC,1,0.73,8.11,6.81
RAMAC,2,1.29,12,7.02
RAMAC,3,0.0752,3.5,3.47
SC5D,1,-0.0976,2.28,5.76
SC5D,2,-0.673,-1.77,4
SC5D,3,0.372,5.58,6
HMGB3P19,1,-0.78,-2.52,3.1
HMGB3P19,2,-1.12,-4.92,1.56
HMGB3P19,3,-0.705,-2,2.45
ADARB1,1,-1.27,-6,2.68
ADARB1,2,-0.648,-1.59,4.51
ADARB1,3,-0.782,-2.54,3.05
SAXO6,1,0.842,8.89,7.85
SAXO6,2,-0.763,-2.4,3.31
SAXO6,3,-0.525,-0.727,2.8
PITPNB,1,-0.323,0.698,4.22
PITPNB,2,0.708,7.95,6.83
PITPNB,3,-0.218,1.43,6.81

3 entries from above, reformatted:
{"Target gene": "ADARB1", "reagent no.": 3, "G2 robust z-score": -0.782, "G2 cells, % of GMNN control": -2.54, "raw share of cells in G2 (%)": 3.05}
{"Target gene": "SAXO6", "reagent no.": 1, "G2 robust z-score": 0.842, "G2 cells, % of GMNN control": 8.89, "raw share of cells in G2 (%)": 7.85}
{"Target gene": "SAXO6", "reagent no.": 2, "G2 robust z-score": -0.763, "G2 cells, % of GMNN control": -2.4, "raw share of cells in G2 (%)": 3.31}
